Test results taken from patent publication US9529005B2, “Modulating bacterial MAM polypeptides in pathogenic disease” (priority 2011, dated 2016).
For at least one compound, name, drawing or mass did not settle the structure.

How the values were obtained:
Klebsiella ssp. = experiment: Antimicrobial susceptibility testing (MIC), BD Phoenix Automated Microbiology System; type: cell-based; settings: all Klebsiella ssp. isolates
Source text: (§1) The inventors performed antimicrobial susceptibility testing (AST) by determining the minimal inhibiting concentration (MIC) of a panel of antimicrobials on all twenty bacterial isolates using the BD Phoenix Automated Microbiology System (Table 3). Antimicrobial panels included several drugs from each of the four most commonly used classes of antimicrobials, aminoglycosides, β-lactams, carbapenems and fluoroquinolones. The panels also included antimicrobials from other classes, such as trimethoprim/sulfamethoxazole, but resistance to these was not considered in the classification of isolates as multidrug-resistant.

Escherichia coli = experiment: as above; type: cell-based; settings: all E. coli isolates
Source text: as §1

Question: Which results are given for `C[C@@H](O)[C@H]1C(=O)N2C(C(=O)O)=C(SCCN=CN)C[C@H]12` [Im., Imipenem]?
Answer: susceptibility of isolates (Klebsiella ssp.): susceptible; susceptibility of isolates (Escherichia coli): susceptible
